Results from the supplement of paper PMC8166895.
Structures can show the parent of a compound that is named as a salt. The list shows a part of the results. Most entries show no effect beyond the scatter of the controls.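 A single-replicate pilot screen of approved drugs and clinical or known-target compounds measured melting temperature via differential scanning fluorimetry. Top stabilizing hits raised the melting point by 2 °C or more; negative shifts indicate destabilization.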

The compounds below were run on SARS-CoV-2 main protease (Mpro, nsp5) (assay: thermal shift ΔTm of Mpro relative to plate average Tm; higher = stronger thermal stabilization of Mpro (binding)). Details: 10 µM; protein concentration 1 µM.

Compound	thermal shift ΔTm of Mpro [°C]
N#Cc1ccc(-c2csc(NN=C3CCCC3)n2)cc1 [Remodelin]	-0.238
O=C(/C=C/c1ccc(O)cc1)c1ccc(O)cc1O [Isoliquiritigenin]	0.848
Cc1c(NC(=O)c2cccnc2)c(=O)n(-c2ccccc2)n1C [Nifenazone]	0.0321
CS(=O)(=O)OCCCCOS(C)(=O)=O [Busulfan]	-0.0173
OCc1c[nH]c2ccccc12 [Indole-3-carbinol]	-0.106
CC1(C)CC(O)CC(C)(C)N1[O] [Tempol]	-0.186
O=C(Nc1ccccc1)C12CC1C(=NO)c1ccccc1O2 (centres undefined)	-0.0845
N#CCNC(=O)c1ccc(-c2ccnc(Nc3ccc(N4CCOCC4)cc3)n2)cc1	-0.0998
CCc1ccc(-c2nc(CSCC(=O)NCCc3ccccc3)c(C)o2)cc1	-0.211
C[C@@H]1[C@H]2c3cc4c(cc3O[C@@]35OCOC3=CC(=O)[C@H](C[C@H]1C)[C@@H]25)OCO4 [Sauchinone]	-0.0782
O=C(OOC(=O)c1ccccc1)c1ccccc1 [Benzoyl peroxide]	0.36
Cc1ccc2nc(CN(CCN(Cc3nc4ccc(C)cc4[nH]3)Cc3nc4ccc(C)cc4[nH]3)Cc3nc4ccc(C)cc4[nH]3)[nH]c2c1	0.222
CO/N=C(\C(=O)N[C@@H]1C(=O)N2C(C(=O)[O-])=C(C[n+]3cccc4c3CCC4)CS[C@H]12)c1csc(N)n1 [Cefpirome sulfate]	0.2
NC(=O)CCCCC1CCSS1 (centres undefined) [Thioctamide]	-0.00248
Cc1ncc(-c2ccnc(Nc3ccc(S(C)(=O)=O)cc3)n2)n1C(C)C	0.0651
Nc1c(S(=O)(=O)c2ccccc2)c2nc3ccccc3nc2n1-c1ccc(F)cc1	-0.0827
COc1nc(OCc2cccc(-c3ccccc3)c2C)ccc1CNCCNC(C)=O [PD1-PDL1 inhibitor 2]	-0.318
COc1ccc(C(=O)Nc2cc(-c3ccccc3)[nH]n2)cc1OC	-0.169
O=S(=O)(CC1CS1)c1ccc(Oc2ccccc2)cc1 (centres undefined)	-0.178
COc1ccc(S(=O)(=O)N[C@@H](CNc2nc(C)nc(N3CCC(c4ccc5c(n4)NCCC5)CC3)c2C)C(=O)O)cc1	0.0118
CC(C)(O)[C@@H]1CC[C@](C)([C@H]2[C@@H](O)C[C@@]3(C)[C@@H]4C[C@H](O)[C@H]5C(C)(C)[C@@H](O[C@@H]6OC[C@@H](O)[C@H](O)[C@H]6O[C@@H]6O[C@H](CO)[C@@H](O)[C@H](O)[C@H]6O)CC[C@@]56C[C@@]46CC[C@]23C)O1 [Astragaloside III]	0.0451
c1nc2c(NC3CCCCC3)nc(Nc3ccc(N4CCOCC4)cc3)nc2[nH]1 [Reversine]	0.158
COc1cc2nccc(Oc3ccc(NC(=O)NC4CC4)c(Cl)c3)c2cc1C(N)=O [Lenvatinib (E7080)]	0.0338
CNc1cc(-c2cccc(Cl)c2Cl)nc(N)n1	-0.144
CCC(C)(Oc1ccc(C2(c3ccc(OC(C)(CC)C(=O)O)cc3)CCCCC2)cc1)C(=O)O (centres undefined) [Clinofibrate]	0.0406
C[C@@H](O[C@H]1OCCN(Cc2nn(P(=O)(O)O)c(=O)[nH]2)[C@H]1c1ccc(F)cc1)c1cc(C(F)(F)F)cc(C(F)(F)F)c1 [Fosaprepitant dimeglumine salt]	-0.121
CN(C)CC(=O)O [N,N-Dimethylglycine]	0.171

Compound	thermal shift ΔTm of Mpro [°C]
Cc1c(CN2CCN(C(=O)[C@H](C)O)CC2)sc2c(N3CCOCC3)nc(-c3cnc(N)nc3)nc12	-0.165
CC(C)(CO)c1cc2cc(NC(=O)C3(c4ccc5c(c4)OC(F)(F)O5)CC3)c(F)cc2n1C[C@@H](O)CO	-0.0867
Cc1cnc(-c2cc(N3CCN(C(=O)CCS(C)(=O)=O)CC3)ncc2Cl)c(C)c1	-0.163
CC[C@@H]1C(=O)OC[C@@H]1Cc1cncn1C [Pilocarpine HCl]	-0.137
O=c1c(-n2ccnn2)c[nH]n1-c1cc(N2CCOCC2)ncn1 [Molidustat]	0.202
Oc1ccc(C(c2c[nH]c3ccccc23)c2c[nH]c3ccccc23)cc1	0.0473
CN1CCc2c(c3ccccc3n2Cc2ccc(C(=O)NO)cc2)C1 [Tubastatin A HCl]	0.0418
CN1CCc2c(c3ccccc3n2Cc2ccc(C(=O)NO)cc2)C1 [Tubastatin A]	-0.22
CN(c1ccccc1CNc1nc(Nc2ccc3c(c2)CC(=O)N3)ncc1C(F)(F)F)S(C)(=O)=O	-0.0525
CC(=O)CC(c1ccccc1)c1c(O)c2ccccc2oc1=O (centres undefined) [Warfarin]	0.246
CC(=O)CC(c1ccccc1)c1c(O)c2ccccc2oc1=O (centres undefined) [Warfarin sodium]	0.226
CC(C)COc1ccc(CNC(=O)N(Cc2ccc(F)cc2)C2CCN(C)CC2)cc1 [Pimavanserin tartrate]	-0.16
CC(C)COc1ccc(CNC(=O)N(Cc2ccc(F)cc2)C2CCN(C)CC2)cc1 [Pimavanserin]	0.0515
C/C1=C\C(=O)c2c(C)coc2C/C(C)=C/CC1 [Furanodienone]	0.0384
S=C(S)N1CCCC1 [Pyrrolidinedithiocarbamate ammonium]	-6.71
CC(=O)c1cc2c(o1)C(=O)c1ccccc1C2=O [Napabucasin]	0.148
Cc1cc(C)c(/C=C2/C(=O)Nc3ccc(Cl)cc32)[nH]1	-0.0418
CCN(CC)CC(=O)Nc1c(C)cccc1C [Lidocaine Hydrochloride hydrate]	0.231
CCN(CC)CC(=O)Nc1c(C)cccc1C [Lidocaine]	0.573
c1ccc2c(CC3=NCCN3)cccc2c1 [Naphazoline HCl]	0.0724
CC(=O)OCC(=O)[C@@]12OC(C)(C)O[C@@H]1C[C@H]1[C@@H]3C[C@H](F)C4=CC(=O)C=C[C@]4(C)[C@@]3(F)[C@@H](O)C[C@@]12C [Fluocinonide]	0.0122
CC(C=CC(=O)NO)=CC(C)C(=O)c1ccc(N(C)C)cc1 (centres undefined) [Trichostatin A (TSA)]	-0.135
CN1[C@@H]2CC(O)C[C@H]1[C@@H]1O[C@@H]12 (some centres undefined) [Scopine]	0.0498
OCc1ccccc1O[C@@H]1O[C@H](CO)[C@@H](O)[C@H](O)[C@H]1O [Salicin]	0.0772
CN1C(CCl)Nc2cc(Cl)c(S(N)(=O)=O)cc2S1(=O)=O (centres undefined) [Methyclothiazide]	0.122
C=CC1=C(C(=O)O)N2C(=O)[C@@H](NC(=O)/C(=N\O)c3csc(N)n3)[C@H]2SC1 [Cefdinir]	-0.0211
Cc1cn([C@H]2C=C[C@@H](CO)O2)c(=O)[nH]c1=O [Stavudine (d4T)]	0.101

Reprinted from the listing for reference:
Compound	thermal shift ΔTm of Mpro [°C]
CC[C@@H]1C(=O)OC[C@@H]1Cc1cncn1C [Pilocarpine HCl]	-0.137
O=c1c(-n2ccnn2)c[nH]n1-c1cc(N2CCOCC2)ncn1 [Molidustat]	0.202
Oc1ccc(C(c2c[nH]c3ccccc23)c2c[nH]c3ccccc23)cc1	0.0473
CN1CCc2c(c3ccccc3n2Cc2ccc(C(=O)NO)cc2)C1 [Tubastatin A HCl]	0.0418
CN1CCc2c(c3ccccc3n2Cc2ccc(C(=O)NO)cc2)C1 [Tubastatin A]	-0.22
CN(c1ccccc1CNc1nc(Nc2ccc3c(c2)CC(=O)N3)ncc1C(F)(F)F)S(C)(=O)=O	-0.0525
CC(=O)CC(c1ccccc1)c1c(O)c2ccccc2oc1=O (centres undefined) [Warfarin]	0.246
CC(=O)CC(c1ccccc1)c1c(O)c2ccccc2oc1=O (centres undefined) [Warfarin sodium]	0.226
CC(C)COc1ccc(CNC(=O)N(Cc2ccc(F)cc2)C2CCN(C)CC2)cc1 [Pimavanserin tartrate]	-0.16
CC(C)COc1ccc(CNC(=O)N(Cc2ccc(F)cc2)C2CCN(C)CC2)cc1 [Pimavanserin]	0.0515
C/C1=C\C(=O)c2c(C)coc2C/C(C)=C/CC1 [Furanodienone]	0.0384
S=C(S)N1CCCC1 [Pyrrolidinedithiocarbamate ammonium]	-6.71
CC(=O)c1cc2c(o1)C(=O)c1ccccc1C2=O [Napabucasin]	0.148
Cc1cc(C)c(/C=C2/C(=O)Nc3ccc(Cl)cc32)[nH]1	-0.0418
CCN(CC)CC(=O)Nc1c(C)cccc1C [Lidocaine Hydrochloride hydrate]	0.231
CCN(CC)CC(=O)Nc1c(C)cccc1C [Lidocaine]	0.573
c1ccc2c(CC3=NCCN3)cccc2c1 [Naphazoline HCl]	0.0724
CC(=O)OCC(=O)[C@@]12OC(C)(C)O[C@@H]1C[C@H]1[C@@H]3C[C@H](F)C4=CC(=O)C=C[C@]4(C)[C@@]3(F)[C@@H](O)C[C@@]12C [Fluocinonide]	0.0122
CC(C=CC(=O)NO)=CC(C)C(=O)c1ccc(N(C)C)cc1 (centres undefined) [Trichostatin A (TSA)]	-0.135
CN1[C@@H]2CC(O)C[C@H]1[C@@H]1O[C@@H]12 (some centres undefined) [Scopine]	0.0498
OCc1ccccc1O[C@@H]1O[C@H](CO)[C@@H](O)[C@H](O)[C@H]1O [Salicin]	0.0772

Continued:

Compound	thermal shift ΔTm of Mpro [°C]
CC(=O)NS(=O)(=O)c1ccc(N)cc1 [Sulfacetamide sodium salt hydrate]	-1.37e-05
CC(=O)NS(=O)(=O)c1ccc(N)cc1 [Sulfacetamide Sodium]	0.215
C=C1CC[C@@H]2[C@](C)(CO)[C@H](O)CC[C@@]2(C)[C@@H]1C/C=C1/C(=O)OC[C@H]1O [Andrographolide]	-0.0454
Cc1ccc(S(=O)(=O)Cc2nc(-c3ccc(C(=O)NCc4cccnc4)cc3)oc2C)cc1	-0.043
COc1nccnc1NS(=O)(=O)c1cccc(Cl)c1Cl	-0.045
c1ccc2c(c1)Sc1ccccc1N2CC1CN2CCC1CC2 (centres undefined) [Mequitazine]	0.217
Cc1cc(Cn2nnc3c(-c4ccco4)nc(N)nc32)ccc1N [Vipadenant]	0.124
CCn1cc(C(=O)O)c(=O)c2c(N)c(F)c(NC3CCCCC3)cc21	0.0354
CC/C(=C(\c1ccc(O)cc1)c1ccc(OCCNC)cc1)c1ccccc1 [Endoxifen HCl]	-0.358
CC/C(=C(\c1ccc(O)cc1)c1ccc(OCCNC)cc1)c1ccccc1 [(E/Z)-Endoxifen]	-0.472
NCCCC[C@@H]1NC(=O)[C@@H](Cc2ccc(O)cc2)NC(=O)[C@H](CC(=O)O)NC(=O)CNC(=O)[C@H](CCCN=C(N)N)NC1=O [Cyclo(RGDyK)]	0.0913
CNC(=O)c1cc(Oc2ccc(NC(=O)Nc3ccc(Cl)c(C(F)(F)F)c3)cc2)ccn1 [Sorafenib]	1.08
CNC(=O)c1cc(Oc2ccc(NC(=O)Nc3ccc(Cl)c(C(F)(F)F)c3)cc2)ccn1 [Sorafenib Tosylate]	0.542
CNC(=O)c1ccccc1Nc1cc(Nc2ccc(N3CCOCC3)cc2OC)ncc1C(F)(F)F	-0.0123
COc1cccc2c1C(=O)c1c(O)c3c(c(O)c1C2=O)C[C@@](O)(C(C)=O)C[C@@H]3O[C@H]1C[C@H](N)[C@H](O)[C@H](C)O1 [Daunorubicin HCl]	0.0173
CC(C)OC(=O)OCOP(=O)(CO[C@H](C)Cn1cnc2c(N)ncnc21)OCOC(=O)OC(C)C [Tenofovir Disoproxil Fumarate]	0.202
Cc1c(-c2cnccn2)ssc1=S [Oltipraz]	-0.28
COc1ccc(-n2c(SCCCN3C(=O)c4cccc5cccc(c45)C3=O)nnc2-c2ccncc2)cc1	-0.425
Cc1cccc(CC(=O)N2CCc3c2ccc(-c2cn(C)c4ncnc(N)c24)c3F)n1	-0.0256
CCN(CC)CCNC(C(=O)OCCC(C)C)c1ccccc1 (centres undefined) [Camylofin]	0.12
C[C@@H]1C[C@H]2[C@@H]3CCC4=CC(=O)C=C[C@]4(C)[C@@]3(F)[C@@H](O)C[C@]2(C)[C@@]1(O)C(=O)COP(=O)(O)O [Dexamethasone Sodium Phosphate]	0.0275
Cc1ccc(F)c(NC(=O)Nc2ccc(-c3cccc4[nH]nc(N)c34)cc2)c1 [Linifanib (ABT-869)]	0.149
C[C@]12CC[C@@H]3c4ccc(OC(=O)c5ccccc5)cc4CC[C@H]3[C@@H]1CC[C@@H]2O [Estradiol Benzoate]	-0.427
CC(C)(C)[N+]([O-])=Cc1ccc(S(=O)(=O)O)cc1S(=O)(=O)O	-0.0794
Clc1ccc(C(c2c[nH]c3ccccc23)c2c[nH]c3ccccc23)cc1	0.14
